Experimental data from PMC12431657, “Discovery and mechanistic insights of dibenzoylmethane as a broad spectrum inhibitor of coronavirus” (PLOS Pathogens, 2025).
Where a name gives a salt, the structure may show the parent alone. Read-outs that look alike come from different tables or passages of the source. The campaign covered roughly 3,300 compounds. About 60 (2%) showed an effect of 50% or more. The list shows a part of the results.

Test system: HCoV-OC43
Parameters: species or system RD; HTS, protection from HCoV-OC43 induced cell death, luminescent cell viability (CellCounting-Lite 2.0), inhibition rate
Details: 24 h post infection, 1 h compound pre-incubation, 10 µM, inhibitor

Structure (SMILES)	OC43 Inhibition rate [%]	OC43 Inhibition rate (OC43 Inhibition rate, 24 h) [%]
CCCCCCCCCCCCO [1-Dodecanol]	-0.8	
CC1=C[C@]2(O)O[C@@]3(CC2=C(C)C)[C@@H](C)CC[C@@H]13 [Curcumenol]	0.1	
COc1cc2c(cc1O)-c1cc3ccc(OC)c(OC)c3c[n+]1CC2 [Columbamine]	-2.9	
COc1ccc(-c2oc3c(CC=C(C)C)c(O)cc(O)c3c(=O)c2O[C@@H]2O[C@@H](C)[C@H](O)[C@@H](O)[C@H]2O[C@@H]2O[C@H](CO)[C@@H](O)[C@H](O)[C@H]2O)cc1 [Sagittatoside A]	1	
COc1cc(O)cc(/C=C/c2ccccc2)c1 [Pinosylvin monomethyl ether]	-0.2	
CC(C)CCCC(C)CCCC(C)CCCCC(C)CCCC(C)CCCC(C)C (centres unmarked) [Squalane]	-0.3	
OC[C@H]1O[C@@H](O[C@H]2[C@H](O)[C@@H](O)[C@@H](O)O[C@@H]2CO)[C@H](O)[C@@H](O)[C@H]1O [α-Lactose]	-4.2	
COc1ccc(-c2cc(=O)c3c(O)cc(O[C@@H]4O[C@H](CO[C@@H]5O[C@@H](C)[C@H](O)[C@@H](O)[C@H]5O)[C@@H](O)[C@H](O)[C@H]4O)cc3o2)cc1O [Diosmin]	1.4	
O=C(O)c1ccc2ccccc2n1 [Quinoline-2-carboxylic acid]	0.7	
CC1(C)CC[C@]2(C(=O)O)CC[C@]3(C)C(=CC[C@@H]4[C@@]5(C)C[C@H](O)[C@H](O)[C@@](C)(CO)[C@@H]5CC[C@]43C)[C@@H]2C1 [Bayogenin]	-2.5	
O=C(O)C1CSSC1 [Asparagusic acid]	0.3	
Cn1c(=O)ccn([C@@H]2O[C@H](CO)[C@@H](O)[C@H]2O)c1=O [3-Methyluridine]	0.3	
O=C(O)[C@@H]1CCCN1 [L-Proline]	6.9	
CCOC(=O)C1=C[C@]2(CC)CCCN3CCc4c(n1c1ccccc41)[C@@H]32 [Vinpocetine]	0.9	
O=C(/C=C/c1ccc(O[C@@H]2O[C@H](CO)[C@@H](O)[C@H](O)[C@H]2O)cc1)c1ccc(O)cc1O [Isoliquiritin]	0.3	
O=C(O)CCCC(O)C(=O)O (centres unmarked) [2-Hydroxyadipic acid]	-1.2	
COc1ccccc1O [Guaiacol]	2.4	
CCCC[C@@H]1OC(=O)C2=C1CCC=C2 [Senkyunolide A]	0	
COc1cc(CCC(C)=O)ccc1O [Zingerone]	0.6	
CC(C)=CCC/C(C)=C/COc1c2occc2cc2ccc(=O)oc12 [8-Geranyloxypsoralen]	40.2	
COc1cc(O)cc(O)c1C(=O)/C=C/c1ccc(O)cc1 [Helichrysetin]	0.8	

A few values from the list.
CCCC[C@@H]1OC(=O)C2=C1CCC=C2 [Senkyunolide A] – OC43 Inhibition rate [%]: 0
O=C(O)[C@@H]1CCCN1 [L-Proline] – OC43 Inhibition rate [%]: 6.9

Continued.

Structure (SMILES)	OC43 Inhibition rate [%]	OC43 Inhibition rate (OC43 Inhibition rate, 24 h) [%]
N[C@@H](CCC(=O)O)C(=O)O [L-Glutamic acid (monosodium salt)]		-1.4
COC(=O)Cc1ccc(C(C)(C)C)cc1 [Methyl p-tert-butylphenylacetate]	-0.2	
CN(C)[C@@H]1C(O)=C(C(N)=O)C(=O)[C@@]2(O)C(O)=C3C(=O)c4c(O)ccc(Cl)c4[C@@](C)(O)[C@H]3C[C@@H]12 [Chlortetracycline (hydrochloride)]	1.3	
O=C1c2ccccc2C(=O)c2c(O)cccc21 [1-Hydroxyanthraquinone]	-2.2	
COC(=O)C1CCCCC1 [Methyl cyclohexanecarboxylate]	-0.8	
OC1CCN2Cc3ccccc3N=C12 (racemic) [(±)-Vasicine]	-0.5	
O=C1C=CCO1 [2(5H)-Furanone]	4.6	
C[C@]12CC[C@@H]3c4ccc(O)cc4CC[C@H]3[C@@H]1CCC2=O [Estrone]	-1.1	
Nc1nc(N)c(O[C@@H]2O[C@H](CO)[C@@H](O)[C@H](O)[C@H]2O)c(=O)[nH]1 [Vicine]	-0.8	
C[C@H]1CC[C@@]2(OC1)O[C@H]1C[C@H]3[C@@H]4CC[C@@H]5C[C@@H](O[C@@H]6O[C@H](CO)[C@H](O)[C@H](O)[C@H]6O)CC[C@]5(C)[C@H]4CC[C@]3(C)[C@H]1[C@@H]2C [Timosaponin A1]	-0.9	
CC(=O)c1c(O)c(C)c(O)c2c1OC1=CC(=O)C(C(C)=O)C(=O)C12C (centres unmarked) [Usnic acid]	-0.2	
O=C(O)C(=O)c1ccccc1 [Phenylglyoxylic acid]	-0.7	
COc1cccc(O)c1-c1cc(=O)c2c(O)c(OC)c(OC)c(OC)c2o1 [Skullcapflavone II]	20.2	
O=C1CC[C@H](NC(=O)Cc2ccccc2)C(=O)N1 [Antineoplaston A10]	2	
CCCCCC1CCCC(=O)O1 (centres unmarked) [δ-Decalactone]	-1.9	
COc1ccc(/C=C/C(=O)c2c(O)cc(O[C@@H]3O[C@H](CO[C@@H]4O[C@@H](C)[C@H](O)[C@@H](O)[C@H]4O)[C@@H](O)[C@H](O)[C@H]3O)cc2OC)cc1O [Hesperidin methylchalcone]	-0.1	
OC[C@@H](O)[C@H](O)[C@@H](O)CO [Xylitol]	0.2	
CC1=CC(=O)C(C(C)C)CC1 (centres unmarked) [Piperitone]	-0.8	
CCCCCCCCCCCCCCCC(=O)OCC [Ethyl palmitate]	-0.2	
CCCCCC/C=C\CCCCCCCCCCCC(=O)O [Paullinic acid]	-0.2	
N#Cc1cn([C@@H]2O[C@H](CO)[C@@H](O)[C@H]2O)c2ncnc(N)c12 [Toyocamycin]	30.4	

Complete entries, looked up by structure.
`O=C(O)C1CSSC1` [Asparagusic acid] as listed: OC43 Inhibition rate [%]: 0.3
`COc1cc2c(cc1O)-c1cc3ccc(OC)c(OC)c3c[n+]1CC2` [Columbamine] as listed: OC43 Inhibition rate [%]: -2.9
`CCOC(=O)C1=C[C@]2(CC)CCCN3CCc4c(n1c1ccccc41)[C@@H]32` [Vinpocetine] as listed: OC43 Inhibition rate [%]: 0.9

Later entries:

Structure (SMILES)	OC43 Inhibition rate [%]	OC43 Inhibition rate (OC43 Inhibition rate, 24 h) [%]
O=C(O)CCc1c[nH]c2ccccc12 [3-Indolepropionic acid]	-0.1	
CC[C@H](CC[C@@H](C)[C@H]1CC[C@H]2[C@@H]3CC=C4C[C@@H](O)CC[C@]4(C)[C@H]3CC[C@]12C)C(C)C [Beta-Sitosterol (purity>98%)]		0
COC(=O)c1ccc(OC)cc1 [Methyl anisate]	3.1	
COc1ccc2ccc(=O)oc2c1CC(=O)C(C)C [Isomerazin]	1.4	
OC[C@H]1O[C@@H]2O[C@H]3[C@H](O)[C@@H](O)[C@@H](O[C@H]4[C@H](O)[C@@H](O)[C@@H](O[C@H]5[C@H](O)[C@@H](O)[C@@H](O[C@H]6[C@H](O)[C@@H](O)[C@@H](O[C@H]7[C@H](O)[C@@H](O)[C@@H](O[C@H]8[C@H](O)[C@@H](O)[C@@H](O[C@H]9[C@H](O)[C@@H](O)[C@@H](O[C@H]1[C@H](O)[C@H]2O)O[C@@H]9CO)O[C@@H]8CO)O[C@@H]7CO)O[C@@H]6CO)O[C@@H]5CO)O[C@@H]4CO)O[C@@H]3CO [γ-Cyclodextrin]	0.8	
CC(=O)OC1CC(C)CCC1C(C)C (centres unmarked) [Menthyl acetate]	1.8	
COc1cc(O)c(C(=O)/C=C/c2ccccc2)c(O)c1 [Pinostrobin chalcone]	0	
CN1Cc2c(ccc3c2OCO3)[C@@]2(C)[C@@H](O)Cc3cc4c(cc3[C@@H]12)OCO4 [Corynoline]	27.7	
COc1cc(O)ccc1CCC(=O)c1ccc(O)cc1 [Loureirin C]	7	
CCc1cnccn1 [2-Ethylpyrazine]	4.1	
C[C@@]12C[C@@]3(O)O[C@@H](O1)[C@]1(COC(=O)c4ccccc4)[C@@H]3C[C@]12O[C@@H]1O[C@H](COC(=O)c2cc(O)c(O)c(O)c2)[C@@H](O)[C@H](O)[C@H]1O [Galloylpaeoniflorin]	0.4	
CN(C)C [Trimethylammonium chloride]	-0.3	
O[C@H]1[C@H]2c3cc4c(cc3CN3CC[C@H](C[C@@H]1O)[C@H]23)OCO4 [Dihydrolycorine]	0	
CC(=O)OC[C@H]1O[C@@H](O[C@@H]2[C@@H](O)[C@H](O[C@@H]3[C@H](O)C(C)(C)C[C@H]4C5=CC[C@@H]6[C@@]7(C)CC[C@H](O[C@@H]8O[C@H](C(=O)O)[C@@H](O)[C@H](O)[C@H]8O[C@@H]8O[C@H](CO)[C@H](O)[C@H](O)[C@H]8O[C@@H]8O[C@H](CO)[C@@H](O)[C@H](O)[C@H]8O)[C@](C)(CO)[C@@H]7CC[C@@]6(C)[C@]5(C)CC[C@@]34C)OC[C@@H]2O)[C@H](OC(C)=O)[C@@H](OC(C)=O)[C@@H]1OC(C)=O [Soyasaponin Ab]	-0.4	
COc1cc(/C=C/C(=O)O[C@H]2[C@H](O)[C@@H](CO)O[C@@]2(CO)O[C@H]2O[C@H](COC(=O)c3ccc(O)cc3)[C@@H](O)[C@H](O)[C@H]2O)cc(OC)c1O [Tenuifoliside B]	-0.6	
C=C1C[C@@]23CC[C@H]4[C@@](C)(CCC[C@@]4(C)C(=O)O[C@@H]4O[C@H](CO)[C@@H](O)[C@H](O)[C@H]4O)[C@@H]2CC[C@]1(O[C@@H]1O[C@H](CO)[C@@H](O)[C@H](O)[C@H]1O[C@@H]1O[C@H](CO)[C@@H](O)[C@H](O)[C@H]1O)C3 [Stevioside]	0	
COC(=O)C1=CO[C@@H](O[C@@H]2O[C@H](CO)[C@@H](O)[C@H](O)[C@H]2O)[C@@H]2[C@H](C)O[C@@H](O)C[C@H]12 [Morroniside]	-0.7	
OC[C@H]1OC(O)[C@H](O)[C@H](O)[C@@H]1O (stereo partly drawn) [D-Allose]	-0.3	
Nc1nc2c(ncn2[C@H]2C[C@H](O)[C@@H](CO)O2)c(=O)[nH]1 [2'-Deoxyguanosine]		3.5
CC(C)=CCC/C(C)=C/COc1c2ccoc2cc2oc(=O)ccc12 [Bergamottin]	-3.1	
